These are yes or no findings as the source states them, for the method shown. Some binding calls cover weakened binding; strength is not graded here.

Test [1] addresses T1, cynomolgus monkey OSM (cOSM) (cynomolgus monkey).
T1 sequence: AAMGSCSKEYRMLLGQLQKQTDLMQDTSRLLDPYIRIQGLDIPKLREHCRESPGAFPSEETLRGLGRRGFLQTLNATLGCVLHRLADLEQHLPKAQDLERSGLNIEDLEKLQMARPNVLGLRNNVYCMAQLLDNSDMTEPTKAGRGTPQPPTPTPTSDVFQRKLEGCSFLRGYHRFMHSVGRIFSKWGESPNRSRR
The experiment in a line: gp130 inhibition ELISA, purified antibodies.

Test [2] shares this target. In words: gp130 inhibition ELISA, CHO supernatant. (An ELISA detects its analyte on a solid surface through an enzyme-linked reagent.)

B1: humanised 15E10 antibody B4L2 (antibody, V domains shown)
VH: QVQLVESGGGVVQPGRSLRLSCAASGFSLTNYGVHWVRQAPGKGLEWVAVIWRGGSTDYNAAFMSRLTISKDNSKNTLYLQMNSLRAEDTAVYYCAKSPNSNFYWYFDVWGRGTLVTVSS
VL: EIVLTQSPATLSLSPGERATLSCSGSSSVSYMYWYQQKPGQAPRLLIEDTSNLASGIPARFSGSGSGTDYTLTISNLEPEDFAVYYCQQWSSYPPTFGQGTKLEIKR
Turning to B1, the binding result in test [1] and in test [2] was “binds” each time.

B2: humanised 15E10 antibody B2L2 (antibody, V domains shown)
VH: QVQLVESGGGVVQPGRSLRLSCAASGFSLTNYGVHWVRQAPGKGLEWVAVIWRGGSTDYNAAFMSRFTISRDNSKNTLYLQMNSLRAEDTAVYYCAKSPNSNFYWYFDVWGRGTLV
VL: EIVLTQSPATLSLSPGERATLSCSGSSSVSYMYWYQQKPGQAPRLLIEDTSNLASGIPARFSGSGSGTDYTLTISNLEPEDFAVYYCQQWSSYPPTFGQGTKLEIK
Turning to B2, the binding result in test [1] was “binds”.

These data come from patent publication WO2005095457A2 (dated 2005).
